Assay results published in patent publication US20030119716A1, “Methods for screening, treating and diagnosing G-protein coupled receptor-related disorders and compositions thereof” (Wyeth, priority 2001, published 2003).
Some results were stated once for a whole list of compounds, not compound by compound.

B1: RGS2: human RGS2 expressed from pCR3.1; selective GAP for Gαq (protein)
chain: MQSAMFLAVQHDCRPMDKSAGSGHKSEEKREKMKRTLLKDWKTRLSYFLQNSSTPGKPKTGKKSKQQAFIKPSPEEAQLWSEAFDELLASKYGLAAFRAFLKSEFCEENIEFWLACEDFKKTKSPQKLSSKARKIYTDFIEKEAPKEINIDFQTKTLIAQNIQEATSGCFTTAQKRVYSLMENNSYPRFLESEFYQDLCKKPQITTEPHAT
B2: RGSz1: human RGSz1 expressed from pCR3.1; highly selective for Gαz (protein)
chain: MPQLSQDNQECLQKHFSRPSIWTQFLPLFRAQRYNTDIHQITENEGDLRAVPDIKSFPPAQLPDSPAAPKLFGLLSSPLSSLARFFSHLLRRPPPEAPRRRLDFSPLLPALPAARLSRGHEELPGRLSLLLGAALALPGRPSGGRPLRPPHPVAKPREEDATAGQSSPMPQMGSERMEMRKRQMPAAQDTPGAAPGQPGAGSRGSNACCFCWCCCCSCSCLTVRNQEDQRPTIASHELRADLPTWEESPAPTLEEVNAWAQSFDKLMVTPAGRNAFREFLRTEFSEENMLFWMACEELKKEANKNIIEEKARIIYEDYISILSPKEVSLDSRVREVINRNMVEPSQHIFDDAQLQIYTLMHRDSYPRFMNSAVYKDLLQSLSEKSIEA

Test system: c-fos SRE activation in CHO cells stably expressing D2R
Experiment: SRE-luciferase reporter assay, quinpirole-stimulated c-fos SRE activation in CHO-D2R cells
Assay type: cell-based, Chinese hamster
Settings: RGS co-transfected with Gαi1, all quinpirole concentrations used (10 nM-100 μM)

Row | Molecule | inhibition (attenuation) of SRE activation
1 | B1 | 25-30%
2 | B2 | 25-30%
